From US10973867B2, “Compositions and methods for treating retinopathy” (Marshall University Research Corporation, priority 2015, dated 2021)

Columns and labels:
HRMECs = experiment: Matrigel assay, angiogenic capillary tube formation of HRMECs; assay type: cell-based, human; conditions: 24 hours
Experimental: (§1) Normal human primary retinal endothelial cells (HRMECs) were purchased from Cell Systems, WA. They were maintained in endothelial basal medium (EBM) containing growth factors and supplemented with 5% fetal bovine serum (FBS), prepared according to the manufacturer's protocol (referred hereafter as EGM-2 complete media). The EBM medium and supplements were purchased from Lonza (Basel, Switzerland). All experiments using HRMECs were performed between passages 3-8. During experiments, HRMECs were incubated in EGM-2 reduced media (referred hereafter as EGM-R media), which was comprised of EBM media containing ¼ the concentration of growth factors and 0.5% FBS.
To measure the effect of increase pNaKtide on HRMECs, cells were treated to promote differentiation of the cells into capillary tube-like structures. Cells were subsequently harvested, seeded on polymerized matrigel and supplemented with 0.5 μM, 1 μM, and 5 μM of pNaKtide and incubated for 24 hours. Further investigation of the effect of pNaKtide on angiogenesis and VEGF expression was performed in tumor xenograft models as described herein.
Growth Factor Reduced (GFR)-Matrigel (BD Biosciences, Bedford, Mass.) was used to promote the differentiation of HRMECs' into capillary tube-like structures. […]

DU145 tumor xenografts = experiment: Vessel density of xenograft tumors (IHC staining of CD31); assay type: in vivo, NOD SCID mice
Experimental: (§2) Tumor xenografts were established by subcutaneous injection of 5×10^6DU145 cells into the left and right flanks for 6-week-old female NOD SCID mice (Charles River). When tumors reaches an average volume of 100 mm^3, mice were injected intraperitoneally (IP) with saline or pNaKtide (at doses of 2 mg/kg and 10 mg/kg body weight) every other day for five times. Tumors from control and pNaKtide-treated mice were analyzed for the ability of pNaKtide to inhibit in vivo angiogenesis. The tumors were immunostained with an antibody against CD-31 to identify vessels. A goat polyclonal anti-CD31 antibody and ImmPRESS Reagent anti-goat Ig peroxidase were used. Negative controls were performed by replacing primary antibody with normal goat immunoglobulins. Then, the CD-31 positive regions were quantified using Image J, and vascularity density was calculated as the percent of tumor tissue area occupied by vessels. The production of VEGF was also evaluated by Western blotting using anti-VEGF antibody.

VEGF = VEGF expression in tumor xenograft homogenates (Western blot); assay type: in vivo, NOD SCID mice
Experimental: as §2

[1] = test system: human retinal microvascular endothelial cells (HRMECs); experiment: BrdU assay, proliferation of HRMECs; assay type: cell-based; conditions: 24 hours; pNaKtide at 0.5, 1 and 5 micromolar, dose dependent
Experimental: To measure the effect of increased pNaKtide on HRMECs, cells were incubated with bromodeoxyuridine (BrdU), a nucleotide analog that is incorporated during S-phase in the DNA of proliferating cells. After overnight incubation, the cells were treated with 0.1 μM, 1 μM, and 5 μM of pNaKtide for 24 hours. The number of BrdU positive cells were then counted as an indication of cell proliferation.
as §1, with “During experiments, HRMECs were incubated in EGM-2 reduced media (referred hereafter as EGM-R media), which was comprised of EBM media containing ¼ the concentration of growth factors and 0.5% FBS.” left out
After overnight incubation at 37° C., the media was changed to EGM-R media. […] The rate of BrdU incorporation was measured by the BrdU kit (Roche Biochemicals, Indianaplis, Ind., USA), according to manufacturer's instructions. The number of BrdU positive cells was counted in three independent fields per sample. […] The relative number of BrdU positive cells in the peptide-treated HRMECs was calculated as a fraction of the BrdU-incorporated HRMECs. […]

retinal vasculature = experiment: Mouse model of oxygen-induced retinopathy (OIR), retinal neovascularization and vaso-obliteration; assay type: in vivo, mice (C57BL/6); conditions: intravitreous injection of 1 μl pNaKtide (0.25 μg/μl) at P12, read at P17
Experimental: The effects of pNaKtide on neovascularization were also assessed in a mouse model of oxygen-induced retinopathy (OIR) according to the protocol developed in the laboratory of Smith. Briefly, litters of mice pups at postnatal day (P) 7 (C57BL/6, n=9) with their mothers were exposed in a chamber (BioSpherix Proox Model 110 Hyperoxia, BioSpherix, Ltd.) to high oxygen concentrations (75%±2%) for 5 days. At P12, mice were anesthetized by intraperitoneal injection of ketamine and xylazine mixture. pNaKtide was then dissolved in PBS at 0.25 μg/μl, and intravitreal injections were performed using a microsyringe (NanoFil syringe; World Precision Instruments, Inc., Sarasota, Fla., USA). pNaKtide (1 μl) was injected into the right eye, while the left eye was served as a control. Mice were killed at P17. The eyes were harvested immediately and fixed in 4% PFA for 1 h at room temperature. The retinae were dissected under a dissection microscope and stained with lectin solution that specifically binds to endothelial cells (Isolectin B4-594, Alexa Fluor 594-I21413, Molecular Probes). Under a dissection microscope, the stained retinae were cut four incisions and flat mounted.
Images of the retinal vasculature were then obtained with Zeiss fluorescent microscope and then multiple images from the same retinae were analyzed for vascular loss and neovascularization using Photoshop and Image J software. […]

GRKKRRQRRRPPQSATWLALSRIAGLCNRAVFQ (TAT NaKtide Fusion Polypeptide) [pNaKtide]
angiogenic sprouting of HRMECs on Matrigel (HRMECs; 0.5 μM, 1 μM and 5 μM pNaKtide, concentration dependent): decrease in angiogenic sprouting | concentration of maximal anti-angiogenic effect (HRMECs; Matrigel assay, HRMECs): 5 µM | reduction in new blood vessel formation (DU145 tumor xenografts; 10 mg/kg every two days, i.p.): 70% | vessel density (percent of tumor area occupied by vessels) (DU145 tumor xenografts; 10 mg/kg pNaKtide group, control mice approximately 10%): approximately 2.5% | inhibition of VEGF expression (VEGF; 10 mg/kg every two days, i.p.): about 50% | reduction in total VEGF (VEGF; tumor homogenates, Western blot, 2 or 10 mg/kg every two days, intraperitoneally): greater than 50% | proliferation of HRMECs (BrdU positive cells) [1]: potently suppressed the proliferation | retinal neovascularization (retinal vasculature; vs OIR control eye): decreased the amount of neovascularization | retinal vaso-obliteration area of the total retina (retinal vasculature; vs control treatment): reduced both the neovascular and retinal vaso-obliteration area
